Consider 33 targets from the supplement of paper PMC10849652.

The chains behind the UniProt entries cited, without tags or fusion partners. Where a name states a change or a piece, a line headed by the entry shows the natural chain unless it says otherwise.
UniProt Q9NVP2, whole entry, looked up: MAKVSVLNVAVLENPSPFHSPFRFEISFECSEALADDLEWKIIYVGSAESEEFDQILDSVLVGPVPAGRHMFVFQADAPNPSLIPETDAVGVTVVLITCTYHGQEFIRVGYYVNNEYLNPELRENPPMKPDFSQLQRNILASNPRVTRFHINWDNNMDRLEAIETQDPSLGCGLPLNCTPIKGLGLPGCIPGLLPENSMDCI
UniProt Q9H1I8: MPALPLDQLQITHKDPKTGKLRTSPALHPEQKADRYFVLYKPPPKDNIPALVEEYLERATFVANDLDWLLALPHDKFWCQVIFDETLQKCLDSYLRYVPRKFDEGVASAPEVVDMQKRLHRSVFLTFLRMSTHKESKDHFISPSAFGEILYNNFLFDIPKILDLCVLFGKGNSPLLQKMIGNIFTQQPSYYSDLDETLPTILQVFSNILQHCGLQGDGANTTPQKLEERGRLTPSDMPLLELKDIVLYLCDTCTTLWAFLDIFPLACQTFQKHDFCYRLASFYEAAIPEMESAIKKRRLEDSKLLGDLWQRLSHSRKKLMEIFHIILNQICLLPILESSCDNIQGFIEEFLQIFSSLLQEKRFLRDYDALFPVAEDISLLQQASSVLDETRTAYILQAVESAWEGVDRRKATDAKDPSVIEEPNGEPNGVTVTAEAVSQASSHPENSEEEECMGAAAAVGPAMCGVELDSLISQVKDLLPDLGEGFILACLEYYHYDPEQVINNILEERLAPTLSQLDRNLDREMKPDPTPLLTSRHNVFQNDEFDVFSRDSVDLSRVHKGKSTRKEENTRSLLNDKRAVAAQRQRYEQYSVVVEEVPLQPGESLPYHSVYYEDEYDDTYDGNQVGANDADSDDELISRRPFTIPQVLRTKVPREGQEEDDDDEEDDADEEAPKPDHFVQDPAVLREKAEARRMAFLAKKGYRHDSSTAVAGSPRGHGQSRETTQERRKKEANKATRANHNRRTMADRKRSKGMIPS
UniProt P08243: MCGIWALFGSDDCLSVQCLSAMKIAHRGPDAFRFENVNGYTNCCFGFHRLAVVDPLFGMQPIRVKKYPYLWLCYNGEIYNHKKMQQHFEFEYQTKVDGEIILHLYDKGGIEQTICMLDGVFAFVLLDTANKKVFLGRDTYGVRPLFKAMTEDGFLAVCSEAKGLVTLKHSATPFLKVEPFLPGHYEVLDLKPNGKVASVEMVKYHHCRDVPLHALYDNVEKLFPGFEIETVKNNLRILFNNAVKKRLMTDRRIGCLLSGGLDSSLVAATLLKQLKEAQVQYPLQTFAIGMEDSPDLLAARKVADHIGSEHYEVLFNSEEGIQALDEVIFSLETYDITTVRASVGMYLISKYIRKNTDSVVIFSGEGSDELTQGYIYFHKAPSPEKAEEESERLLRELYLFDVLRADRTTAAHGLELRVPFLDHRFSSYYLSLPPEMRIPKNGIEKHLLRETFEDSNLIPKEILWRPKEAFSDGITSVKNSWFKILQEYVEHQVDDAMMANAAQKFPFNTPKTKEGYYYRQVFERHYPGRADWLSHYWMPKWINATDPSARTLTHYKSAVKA
UniProt O43861: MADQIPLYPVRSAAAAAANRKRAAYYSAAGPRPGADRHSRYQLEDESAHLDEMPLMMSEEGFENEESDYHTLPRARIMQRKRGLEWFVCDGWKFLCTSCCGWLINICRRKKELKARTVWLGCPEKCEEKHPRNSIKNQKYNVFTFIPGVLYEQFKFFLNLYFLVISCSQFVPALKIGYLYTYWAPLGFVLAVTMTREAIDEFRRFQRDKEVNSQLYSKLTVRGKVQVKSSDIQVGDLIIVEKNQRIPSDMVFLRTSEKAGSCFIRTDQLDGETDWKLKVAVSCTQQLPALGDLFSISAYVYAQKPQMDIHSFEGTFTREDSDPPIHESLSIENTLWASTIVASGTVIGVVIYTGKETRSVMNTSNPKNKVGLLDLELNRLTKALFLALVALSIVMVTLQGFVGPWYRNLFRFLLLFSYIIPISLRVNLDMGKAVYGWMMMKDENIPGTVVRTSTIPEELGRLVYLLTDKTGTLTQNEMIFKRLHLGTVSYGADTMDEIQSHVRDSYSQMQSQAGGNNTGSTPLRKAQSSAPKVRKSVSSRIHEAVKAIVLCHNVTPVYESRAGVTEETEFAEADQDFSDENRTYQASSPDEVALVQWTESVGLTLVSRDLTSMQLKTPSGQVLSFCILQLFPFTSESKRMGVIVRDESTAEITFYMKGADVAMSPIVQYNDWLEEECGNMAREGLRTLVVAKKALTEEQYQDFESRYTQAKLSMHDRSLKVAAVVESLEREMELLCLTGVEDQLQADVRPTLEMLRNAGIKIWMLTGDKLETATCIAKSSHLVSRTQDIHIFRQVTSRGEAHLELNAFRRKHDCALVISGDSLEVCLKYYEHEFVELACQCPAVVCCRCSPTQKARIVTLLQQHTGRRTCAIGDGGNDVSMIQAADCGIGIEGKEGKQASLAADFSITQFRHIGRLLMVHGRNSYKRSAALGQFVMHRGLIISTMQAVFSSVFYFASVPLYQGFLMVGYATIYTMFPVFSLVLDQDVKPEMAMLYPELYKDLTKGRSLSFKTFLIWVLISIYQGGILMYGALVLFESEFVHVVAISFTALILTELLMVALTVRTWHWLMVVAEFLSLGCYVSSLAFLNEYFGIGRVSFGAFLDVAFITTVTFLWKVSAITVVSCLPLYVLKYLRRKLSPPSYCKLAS
UniProt P30049: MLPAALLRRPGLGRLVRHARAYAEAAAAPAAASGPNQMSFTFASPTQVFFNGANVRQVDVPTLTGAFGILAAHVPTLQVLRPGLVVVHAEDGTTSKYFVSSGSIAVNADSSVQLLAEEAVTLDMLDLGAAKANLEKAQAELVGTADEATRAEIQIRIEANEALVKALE
UniProt Q2TAZ0: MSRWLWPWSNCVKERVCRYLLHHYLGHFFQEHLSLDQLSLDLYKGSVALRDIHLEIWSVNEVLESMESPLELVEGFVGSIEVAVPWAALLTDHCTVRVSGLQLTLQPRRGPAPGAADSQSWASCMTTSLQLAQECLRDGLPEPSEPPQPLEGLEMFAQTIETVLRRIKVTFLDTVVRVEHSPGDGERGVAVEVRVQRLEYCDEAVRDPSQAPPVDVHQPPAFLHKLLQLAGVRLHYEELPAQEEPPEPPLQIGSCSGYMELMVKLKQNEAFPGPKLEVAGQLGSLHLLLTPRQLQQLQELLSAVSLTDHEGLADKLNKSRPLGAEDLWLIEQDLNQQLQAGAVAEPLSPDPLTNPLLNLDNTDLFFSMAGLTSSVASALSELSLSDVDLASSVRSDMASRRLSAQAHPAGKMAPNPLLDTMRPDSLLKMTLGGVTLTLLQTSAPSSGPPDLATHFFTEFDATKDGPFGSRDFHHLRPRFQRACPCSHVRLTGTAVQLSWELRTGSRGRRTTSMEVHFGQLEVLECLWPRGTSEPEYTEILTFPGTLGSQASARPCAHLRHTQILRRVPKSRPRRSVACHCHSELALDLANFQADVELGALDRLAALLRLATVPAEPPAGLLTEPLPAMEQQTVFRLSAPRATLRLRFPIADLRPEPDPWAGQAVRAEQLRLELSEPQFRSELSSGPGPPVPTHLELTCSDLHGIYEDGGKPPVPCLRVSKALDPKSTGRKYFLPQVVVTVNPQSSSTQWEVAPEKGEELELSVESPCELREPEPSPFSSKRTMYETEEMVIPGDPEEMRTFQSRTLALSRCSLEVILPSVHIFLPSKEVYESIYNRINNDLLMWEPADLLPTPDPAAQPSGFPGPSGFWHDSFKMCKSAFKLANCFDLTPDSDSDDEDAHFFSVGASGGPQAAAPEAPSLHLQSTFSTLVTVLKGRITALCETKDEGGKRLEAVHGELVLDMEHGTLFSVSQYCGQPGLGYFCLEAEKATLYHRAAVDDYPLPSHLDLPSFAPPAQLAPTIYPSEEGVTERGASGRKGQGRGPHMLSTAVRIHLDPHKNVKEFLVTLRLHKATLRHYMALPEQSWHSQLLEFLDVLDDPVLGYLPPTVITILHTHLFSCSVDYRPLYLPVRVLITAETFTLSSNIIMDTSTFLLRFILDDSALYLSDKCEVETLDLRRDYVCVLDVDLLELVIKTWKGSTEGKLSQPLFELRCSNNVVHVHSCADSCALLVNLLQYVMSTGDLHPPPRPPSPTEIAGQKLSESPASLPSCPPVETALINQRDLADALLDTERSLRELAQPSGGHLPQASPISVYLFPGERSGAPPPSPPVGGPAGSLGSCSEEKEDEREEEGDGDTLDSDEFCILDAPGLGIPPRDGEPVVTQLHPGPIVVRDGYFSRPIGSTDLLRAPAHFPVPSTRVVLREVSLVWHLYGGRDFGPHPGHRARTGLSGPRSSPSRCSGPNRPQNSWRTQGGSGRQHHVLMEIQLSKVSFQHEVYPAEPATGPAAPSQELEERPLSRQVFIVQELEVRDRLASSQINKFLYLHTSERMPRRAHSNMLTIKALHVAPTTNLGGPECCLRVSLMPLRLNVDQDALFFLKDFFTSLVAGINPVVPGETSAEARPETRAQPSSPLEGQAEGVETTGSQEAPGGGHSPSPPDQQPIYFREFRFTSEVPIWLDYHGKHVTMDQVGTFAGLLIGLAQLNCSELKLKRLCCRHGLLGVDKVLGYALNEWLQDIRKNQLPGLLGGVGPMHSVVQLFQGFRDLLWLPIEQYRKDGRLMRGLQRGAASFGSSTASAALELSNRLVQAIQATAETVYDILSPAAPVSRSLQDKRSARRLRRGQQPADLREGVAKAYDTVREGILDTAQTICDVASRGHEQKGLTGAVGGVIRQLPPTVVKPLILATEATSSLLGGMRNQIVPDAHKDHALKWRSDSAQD
UniProt Q9UII2: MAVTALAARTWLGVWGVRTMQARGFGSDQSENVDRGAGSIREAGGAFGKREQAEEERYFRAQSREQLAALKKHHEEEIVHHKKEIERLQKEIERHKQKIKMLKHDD
UniProt P56378: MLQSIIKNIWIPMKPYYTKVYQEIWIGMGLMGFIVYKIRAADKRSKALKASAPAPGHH
UniProt P24539: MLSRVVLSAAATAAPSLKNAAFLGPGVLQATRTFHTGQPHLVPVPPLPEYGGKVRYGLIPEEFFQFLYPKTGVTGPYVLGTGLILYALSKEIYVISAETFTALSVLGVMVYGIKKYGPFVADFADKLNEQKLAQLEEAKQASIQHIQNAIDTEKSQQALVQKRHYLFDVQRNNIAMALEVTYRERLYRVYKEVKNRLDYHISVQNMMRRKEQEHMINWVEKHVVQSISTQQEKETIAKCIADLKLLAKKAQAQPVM
UniProt O00244: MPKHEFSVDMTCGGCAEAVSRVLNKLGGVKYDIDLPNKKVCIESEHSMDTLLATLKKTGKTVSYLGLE
UniProt Q16864, whole entry, looked up: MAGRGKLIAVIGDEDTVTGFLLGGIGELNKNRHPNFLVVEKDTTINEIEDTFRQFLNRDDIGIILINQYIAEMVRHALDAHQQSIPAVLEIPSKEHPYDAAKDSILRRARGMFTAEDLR
UniProt P36543, whole entry, looked up: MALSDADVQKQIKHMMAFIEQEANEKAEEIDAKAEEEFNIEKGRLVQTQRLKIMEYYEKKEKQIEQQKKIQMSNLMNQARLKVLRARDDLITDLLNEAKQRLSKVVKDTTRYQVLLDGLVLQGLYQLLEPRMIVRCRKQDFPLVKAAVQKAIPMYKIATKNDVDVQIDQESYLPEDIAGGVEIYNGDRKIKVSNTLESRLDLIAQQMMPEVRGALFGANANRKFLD
UniProt Q9Y487, whole entry, looked up: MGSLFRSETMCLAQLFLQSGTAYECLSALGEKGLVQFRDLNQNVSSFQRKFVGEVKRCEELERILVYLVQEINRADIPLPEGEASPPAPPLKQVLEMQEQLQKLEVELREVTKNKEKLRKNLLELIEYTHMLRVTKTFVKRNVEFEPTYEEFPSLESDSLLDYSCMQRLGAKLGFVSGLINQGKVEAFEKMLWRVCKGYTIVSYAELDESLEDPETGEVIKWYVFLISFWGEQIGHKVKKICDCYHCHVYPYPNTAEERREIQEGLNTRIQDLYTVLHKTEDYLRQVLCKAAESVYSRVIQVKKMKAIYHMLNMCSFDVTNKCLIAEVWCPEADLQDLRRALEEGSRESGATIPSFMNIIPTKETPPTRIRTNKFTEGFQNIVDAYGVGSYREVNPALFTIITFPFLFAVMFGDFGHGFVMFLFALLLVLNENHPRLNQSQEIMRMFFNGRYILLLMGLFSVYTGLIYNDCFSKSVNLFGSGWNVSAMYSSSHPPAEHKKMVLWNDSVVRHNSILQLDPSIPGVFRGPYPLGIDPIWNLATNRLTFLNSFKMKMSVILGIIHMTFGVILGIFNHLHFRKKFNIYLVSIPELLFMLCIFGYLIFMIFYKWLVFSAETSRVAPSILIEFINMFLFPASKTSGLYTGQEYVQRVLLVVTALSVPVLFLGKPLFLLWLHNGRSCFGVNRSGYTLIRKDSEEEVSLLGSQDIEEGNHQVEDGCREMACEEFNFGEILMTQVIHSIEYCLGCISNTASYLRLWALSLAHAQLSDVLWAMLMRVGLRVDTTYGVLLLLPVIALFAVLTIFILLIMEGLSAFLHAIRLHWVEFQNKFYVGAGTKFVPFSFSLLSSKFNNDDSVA

The other results are listed elsewhere or left out.

Compound in one assay: C[C@H](C1=CC=C(C=C1)C(=O)NC2=C3C=CNC3=NC=C2)N
In words: log2 fold change, soluble protein after heating vs DMSO (PISA); higher = thermal stabilisation; K562 lysate, 10 uM; active = over 0.2 and 3.5 SD of the protein, either way, in both replicates (recomputed). The method in brief: (§1)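 To prepare the extract, K562 pellets were dounce-homogenised in PBS pH 7.4 with 1 mM MgCl2, giving crude material at 1 mg/mL protein. This was treated with 10 μM compound for 30 min, then heated in aliquots for 3 min over 48°C-58°C before pooling and addition of NP-40 to 0.5% at 4°C. Centrifugation at 21,000xg for 90 min left soluble protein in the supernatant, which TMTpro 16plex LC-MS/MS quantified with equalised channel sums. Results are log-two fold changes in thermal stability compared with solvent controls, from duplicates.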
For ASF1A (UniProt Q9Y294), the log2 fold change is inactive: -0.032.

As for ATP2B1 isoform 1 (UniProt P20020), the log2 fold change is inactive: -0.053.

Regarding ASF1B (UniProt Q9NVP2), the log2 fold change is inactive: 0.047.

With ATP2A3 isoform 2 (UniProt Q93084), the log2 fold change is inactive: 0.079.

Turning to ATL2 (UniProt Q8NHH9), the log2 fold change is inactive: -0.159.

In the case of ASCC2 (UniProt Q9H1I8), the log2 fold change was inactive: 0.048.

For the target ASNS (UniProt P08243), the log2 fold change was inactive: 0.013.

ATP9B (UniProt O43861): the log2 fold change is inactive: -0.181.

For ASS1 (UniProt P00966), the log2 fold change is inactive: 0.006.

In the case of ATP5F1D (UniProt P30049), the log2 fold change was inactive: 0.054.

Consider ATG4B (UniProt Q9Y4P1), for which the log2 fold change is inactive: 0.114.

For the target ATG2A isoform 3 (UniProt Q2TAZ0), the log2 fold change is inactive: -0.017.

For ATP5IF1 (UniProt Q9UII2), the log2 fold change was inactive: -0.044.

With ATP6V1B1 (UniProt P15313), the log2 fold change is inactive: -0.232.

As for ATP6V1A (UniProt P38606), the log2 fold change was inactive: -0.003.

Turning to ATE1 isoform 2 (UniProt O95260), the log2 fold change is inactive: -0.089.

Take ATP5MF-PTCD1 (UniProt G3V325): the log2 fold change is inactive: -0.032.

Turning to ATP5MPL (UniProt P56378), the log2 fold change was inactive: 0.075.

For the target ATP5PB (UniProt P24539), the log2 fold change is inactive: 0.032.

In the case of AUP1 (UniProt Q9Y679), the log2 fold change was inactive: -0.023.

With ATXN10 (UniProt Q9UBB4), the log2 fold change is inactive: 0.055.

For ASH2L (UniProt Q9UBL3), the log2 fold change was inactive: -0.017.

For the target ATOX1 (UniProt O00244), the log2 fold change was inactive: 0.004.

As for ATP13A3 (UniProt Q9H7F0), the log2 fold change was inactive: -0.172.

For the target ATP6V1F isoform 2 (UniProt Q16864), the log2 fold change is inactive: 0.306.

In the case of ATP6V1E1 (UniProt P36543), the log2 fold change was inactive: -0.213.

Turning to ASNA1 (UniProt O43681), the log2 fold change is inactive: -0.065.

Consider ATP11B (UniProt Q9Y2G3), for which the log2 fold change was inactive: -0.209.

ATR (UniProt Q13535): the log2 fold change was inactive: -0.158.

Consider ATF1 (UniProt P18846), for which the log2 fold change is inactive: 0.042.

Take ATP23 (UniProt Q9Y6H3): the log2 fold change was inactive: 0.134.

ATP6V0A2 (UniProt Q9Y487): the log2 fold change is active: -0.227.

Turning to ASB6 (UniProt Q9NWX5), the log2 fold change was inactive: 0.093.

Compound in the next assay: C[C@H](Nc1ncnc2nc[nH]c12)c1cc2cccc(Cl)c2c(=O)n1-c1ccccc1 [duvelisib]
The assay is described as above. The method in brief: as §1
As to ASF1A (UniProt Q9Y294), the log2 fold change was inactive: 0.055.

Take ATP2B1 isoform 1 (UniProt P20020): the log2 fold change was inactive: 0.019.

For ASF1B (UniProt Q9NVP2), the log2 fold change was inactive: -0.014.

Regarding ATP2A3 isoform 2 (UniProt Q93084), the log2 fold change was inactive: 0.01.

On to ATL2 (UniProt Q8NHH9), for which the log2 fold change is inactive: 0.062.

As for ASCC2 (UniProt Q9H1I8), the log2 fold change was inactive: 0.04.

Regarding ASNS (UniProt P08243), the log2 fold change is inactive: -0.001.

ATP9B (UniProt O43861): the log2 fold change is inactive: -0.005.

For the target ASS1 (UniProt P00966), the log2 fold change is inactive: -0.035.

For the target ATP5F1D (UniProt P30049), the log2 fold change is inactive: -0.022.

On to ATG4B (UniProt Q9Y4P1), for which the log2 fold change is inactive: 0.01.

Regarding ATG2A isoform 3 (UniProt Q2TAZ0), the log2 fold change was inactive: 0.005.

For the target ATP5IF1 (UniProt Q9UII2), the log2 fold change was inactive: -0.005.

As to ATP6V1B1 (UniProt P15313), the log2 fold change was inactive: -0.001.

In the case of ATP6V1A (UniProt P38606), the log2 fold change was inactive: 0.001.

On to ATE1 isoform 2 (UniProt O95260), for which the log2 fold change is inactive: -0.051.

On to ATP5MF-PTCD1 (UniProt G3V325), for which the log2 fold change is inactive: 0.042.

ATP5MPL (UniProt P56378): the log2 fold change was inactive: 0.001.

On to ATP5PB (UniProt P24539), for which the log2 fold change was inactive: -0.002.

In the case of AUP1 (UniProt Q9Y679), the log2 fold change is inactive: 0.07.

With ATXN10 (UniProt Q9UBB4), the log2 fold change was inactive: 0.035.

As for ASH2L (UniProt Q9UBL3), the log2 fold change is inactive: -0.011.

Turning to ATOX1 (UniProt O00244), the log2 fold change was inactive: -0.005.

As for ATP13A3 (UniProt Q9H7F0), the log2 fold change was inactive: 0.005.

In the case of ATP6V1F isoform 2 (UniProt Q16864), the log2 fold change was inactive: -0.034.

Take ATP6V1E1 (UniProt P36543): the log2 fold change is inactive: 0.013.

With ASNA1 (UniProt O43681), the log2 fold change was inactive: -0.012.

Consider ATP11B (UniProt Q9Y2G3), for which the log2 fold change is inactive: 0.03.

For the target ATR (UniProt Q13535), the log2 fold change is inactive: 0.032.

In the case of ATF1 (UniProt P18846), the log2 fold change is inactive: 0.025.

For the target ATP23 (UniProt Q9Y6H3), the log2 fold change was inactive: 0.009.

Take ATP6V0A2 (UniProt Q9Y487): the log2 fold change was inactive: 0.026.

As to ASB6 (UniProt Q9NWX5), the log2 fold change was inactive: 0.008.

Compound in another assay: Cc1cc(Nc2cc(CN3CCOCC3)c3nc(C)c(Cc4ccc(Cl)cc4F)n3n2)n[nH]1 [gandotinib]
The description is as above. An outline of the steps: as §1
For ASF1A (UniProt Q9Y294), the log2 fold change is inactive: 0.055.

As to ATP2B1 isoform 1 (UniProt P20020), the log2 fold change was inactive: 0.007.

Take ASF1B (UniProt Q9NVP2): the log2 fold change was inactive: 0.063.

In the case of ATP2A3 isoform 2 (UniProt Q93084), the log2 fold change was inactive: -0.144.

Turning to ATL2 (UniProt Q8NHH9), the log2 fold change is inactive: -0.031.

Take ASCC2 (UniProt Q9H1I8): the log2 fold change is inactive: -0.026.

ASNS (UniProt P08243): the log2 fold change is inactive: -0.051.

Regarding ATP9B (UniProt O43861), the log2 fold change is inactive: -0.037.

Regarding ASS1 (UniProt P00966), the log2 fold change is inactive: -0.065.

In the case of ATP5F1D (UniProt P30049), the log2 fold change was inactive: -0.018.

Consider ATG4B (UniProt Q9Y4P1), for which the log2 fold change was inactive: -0.128.

As for ATG2A isoform 3 (UniProt Q2TAZ0), the log2 fold change was inactive: -0.123.

Turning to ATP5IF1 (UniProt Q9UII2), the log2 fold change is inactive: 0.211.

ATP6V1B1 (UniProt P15313): the log2 fold change is inactive: 0.099.

Take ATP6V1A (UniProt P38606): the log2 fold change was inactive: 0.007.

For ATE1 isoform 2 (UniProt O95260), the log2 fold change was inactive: 0.076.

Regarding ATP5MF-PTCD1 (UniProt G3V325), the log2 fold change is inactive: 0.022.

For ATP5MPL (UniProt P56378), the log2 fold change is inactive: -0.062.

Consider ATP5PB (UniProt P24539), for which the log2 fold change is inactive: -0.019.

Consider AUP1 (UniProt Q9Y679), for which the log2 fold change was inactive: -0.156.

As for ATXN10 (UniProt Q9UBB4), the log2 fold change is inactive: -0.049.

Consider ASH2L (UniProt Q9UBL3), for which the log2 fold change is inactive: -0.019.

Regarding ATOX1 (UniProt O00244), the log2 fold change is inactive: 0.073.

Consider ATP13A3 (UniProt Q9H7F0), for which the log2 fold change was inactive: 0.047.

As to ATP6V1F isoform 2 (UniProt Q16864), the log2 fold change was inactive: -0.18.

ATP6V1E1 (UniProt P36543): the log2 fold change is inactive: 0.054.

As to ASNA1 (UniProt O43681), the log2 fold change was inactive: -0.034.

ATP11B (UniProt Q9Y2G3): the log2 fold change was inactive: 0.061.

ATR (UniProt Q13535): the log2 fold change was inactive: 0.117.

Consider ATF1 (UniProt P18846), for which the log2 fold change is inactive: 0.012.

With ATP23 (UniProt Q9Y6H3), the log2 fold change is inactive: -0.216.

Take ATP6V0A2 (UniProt Q9Y487): the log2 fold change is inactive: 0.108.

For the target ASB6 (UniProt Q9NWX5), the log2 fold change was inactive: -0.065.
